Reference: PubChem BioAssay AID1259405 (NCATS, 2018)

- Screen: 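Mouse-designed siRNAs used to find CHO productivity engineering targets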 (primary screen)
- System: Chinese hamster CHO-K1 ovary cells with stable secreted eGFP expression
- Knock-down reagent: single siRNA against mouse genes, 0.8 pmol siRNA per well (2 µl of 400 nM stock)
- Time to read-out: 3 days
- Read-out: 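Per-well intracellular GFP measured by laser scanning cytometry, plus viability from ATP luminescence, each relative to plate median of non-targeting control wells, in %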
- Scale: GFP, % of control: higher = more GFP per well, higher productivity; viability (ATP), % of control: higher = more viable cells (more ATP)
- Call rule: 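a knock-down is called active if GFP reaches 120% or more of non-targeting control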
The deposit covers about 50,000 reagents; below is a part drawn at random. Of all reagents, about 4,000 (8%) are marked active. 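Mouse siRNA library applied to hamster cells; one well for each siRNA.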 Unmarked entries are inactive. Reagents against one gene are numbered here.

| Gene | reagent | GFP, % of control | viability (ATP), % of control |
| --- | --- | --- | --- |
| Hmgcll1 (3-hydroxymethyl-3-methylglutaryl-Coenzyme A lyase-like 1) | 1 | 62.6 | 62.7 |
| Hmgcll1 (3-hydroxymethyl-3-methylglutaryl-Coenzyme A lyase-like 1) | 2 | 97.4 | 77 |
| Hmgcll1 (3-hydroxymethyl-3-methylglutaryl-Coenzyme A lyase-like 1) | 3 | 38.4 | 52.4 |
| Hectd3 (HECT domain E3 ubiquitin protein ligase 3) | 1 | 83.2 | 75.2 |
| Hectd3 (HECT domain E3 ubiquitin protein ligase 3) | 2 | 24.5 | 32.2 |
| Hectd3 (HECT domain E3 ubiquitin protein ligase 3) | 3 | 45.7 | 41.8 |
| Fgf20 (fibroblast growth factor 20) | 1 | 84.5 | 71.8 |
| Fgf20 (fibroblast growth factor 20) | 2 | 40.4 | 68.2 |
| Fgf20 (fibroblast growth factor 20) | 3 | 40 | 76.3 |
| Lrrk2 (leucine-rich repeat kinase 2) | 1 | 139 (active) | 104 |
| Lrrk2 (leucine-rich repeat kinase 2) | 2 | 65.1 | 70.8 |
| Lrrk2 (leucine-rich repeat kinase 2) | 3 | 71 | 78.4 |
| Traf4 (TNF receptor associated factor 4) | 1 | 55.7 | 74.1 |
| Traf4 (TNF receptor associated factor 4) | 2 | 69.2 | 50.7 |
| Traf4 (TNF receptor associated factor 4) | 3 | 66.2 | 71.8 |
| Rpl4 (ribosomal protein L4) | 1 | 75.9 | 88.3 |
| Rpl4 (ribosomal protein L4) | 2 | 60.1 | 42.4 |
| Rpl4 (ribosomal protein L4) | 3 | 41.8 | 53.9 |
| Gapdhs (glyceraldehyde-3-phosphate dehydrogenase, spermatogenic) | 1 | 79.7 | 120 |
| Gapdhs (glyceraldehyde-3-phosphate dehydrogenase, spermatogenic) | 2 | 86.8 | 72.7 |
| Dppa5a (developmental pluripotency associated 5A) | 1 | 77.8 | 68.6 |
| Dppa5a (developmental pluripotency associated 5A) | 2 | 68.9 | 92.2 |
| Dppa5a (developmental pluripotency associated 5A) | 3 | 133 (active) | 53.3 |
| Ift20 (intraflagellar transport 20) | 1 | 84.9 | 88.4 |
| Ift20 (intraflagellar transport 20) | 2 | 79.6 | 67.3 |
| Ift20 (intraflagellar transport 20) | 3 | 13.1 | 11.8 |
| AU018091 (expressed sequence AU018091) | 1 | 82 | 122 |
| AU018091 (expressed sequence AU018091) | 2 | 66.2 | 63.7 |
| AU018091 (expressed sequence AU018091) | 3 | 64.3 | 71.6 |
| Porcn (porcupine O-acyltransferase) | 1 | 72.2 | 67.2 |
| Porcn (porcupine O-acyltransferase) | 2 | 131 (active) | 79.3 |
| Porcn (porcupine O-acyltransferase) | 3 | 83.5 | 47.7 |
| Mtpn (myotrophin) | 1 | 78.2 | 84 |
| Mtpn (myotrophin) | 2 | 77 | 73 |
| Mtpn (myotrophin) | 3 | 66.4 | 65 |
| Paqr6 (progestin and adipoQ receptor family member VI) | 1 | 76 | 89.8 |
| Paqr6 (progestin and adipoQ receptor family member VI) | 2 | 102 | 69 |
| Paqr6 (progestin and adipoQ receptor family member VI) | 3 | 65.1 | 91.8 |
| Fgd1 (FYVE, RhoGEF and PH domain containing 1) | 1 | 77.6 | 108 |
| Fgd1 (FYVE, RhoGEF and PH domain containing 1) | 2 | 91.6 | 55.7 |
| Fgd1 (FYVE, RhoGEF and PH domain containing 1) | 3 | 120 | 82.7 |
| Hcn3 (hyperpolarization-activated, cyclic nucleotide-gated K+ 3) | 1 | 122 (active) | 84.2 |
| Hcn3 (hyperpolarization-activated, cyclic nucleotide-gated K+ 3) | 2 | 136 (active) | 69.5 |
| Hcn3 (hyperpolarization-activated, cyclic nucleotide-gated K+ 3) | 3 | 111 | 78.5 |
| Trim50 (tripartite motif-containing 50) | 1 | 116 | 104 |
| Trim50 (tripartite motif-containing 50) | 2 | 64 | 73 |
| Trim50 (tripartite motif-containing 50) | 3 | 65.9 | 88.6 |
| Fars2 (phenylalanine-tRNA synthetase 2, mitochondrial) | 1 | 93.4 | 74.8 |
| Fars2 (phenylalanine-tRNA synthetase 2, mitochondrial) | 2 | 165 (active) | 159 |
| Pira1 (paired-Ig-like receptor A1) | 1 | 114 | 103 |
| Pira1 (paired-Ig-like receptor A1) | 2 | 78.9 | 59.3 |
| Pira1 (paired-Ig-like receptor A1) | 3 | 48.2 | 69.5 |
| Ccnb1 (cyclin B1) | 1 | 110 | 91.4 |
| Ccnb1 (cyclin B1) | 2 | 60 | 28.9 |
| Ccnb1 (cyclin B1) | 3 | 123 (active) | 117 |
| Ctbp2 (C-terminal binding protein 2) | 1 | 106 | 96.1 |
| Ctbp2 (C-terminal binding protein 2) | 2 | 72.6 | 61.9 |
| Ctbp2 (C-terminal binding protein 2) | 3 | 177 (active) | 154 |
| Snx30 (sorting nexin family member 30) | 1 | 44.4 | 68.2 |
| Snx30 (sorting nexin family member 30) | 2 | 65.9 | 62.7 |
| Snx30 (sorting nexin family member 30) | 3 | 59.3 | 77.4 |
| Rbm14 (RNA binding motif protein 14) | 1 | 66.1 | 54.3 |
| Rbm14 (RNA binding motif protein 14) | 2 | 86 | 72.8 |
| Atp6v1c1 (ATPase, H+ transporting, lysosomal V1 subunit C1) | 1 | 69.2 | 53.1 |
| Atp6v1c1 (ATPase, H+ transporting, lysosomal V1 subunit C1) | 2 | 82.5 | 82.4 |
| Atp6v1c1 (ATPase, H+ transporting, lysosomal V1 subunit C1) | 3 | 37.7 | 43.6 |
| Slamf7 (SLAM family member 7) | 1 | 120 (active) | 87.6 |
| Slamf7 (SLAM family member 7) | 2 | 104 | 98.8 |
| Slamf7 (SLAM family member 7) | 3 | 89.2 | 87.9 |
| Or13c7c (olfactory receptor family 13 subfamily C member 7C) | 1 | 44.5 | 44 |
| Or13c7c (olfactory receptor family 13 subfamily C member 7C) | 2 | 77.3 | 98.6 |
| Or13c7c (olfactory receptor family 13 subfamily C member 7C) | 3 | 60.3 | 64.4 |
| Ndufb11 (NADH:ubiquinone oxidoreductase subunit B11) | 1 | 97.9 | 51 |
| Ndufb11 (NADH:ubiquinone oxidoreductase subunit B11) | 2 | 83.5 | 88.4 |
| Ndufb11 (NADH:ubiquinone oxidoreductase subunit B11) | 3 | 118 | 65.1 |
| Jtb (jumping translocation breakpoint) | 1 | 78.2 | 85.3 |
| Jtb (jumping translocation breakpoint) | 2 | 49.8 | 49.7 |
| Jtb (jumping translocation breakpoint) | 3 | 59.5 | 54.1 |
| Pam (peptidylglycine alpha-amidating monooxygenase) | 1 | 68.1 | 85.2 |
| Pam (peptidylglycine alpha-amidating monooxygenase) | 2 | 105 | 79 |
| Pam (peptidylglycine alpha-amidating monooxygenase) | 3 | 85.7 | 83.7 |
| Col5a1 (collagen, type V, alpha 1) | 1 | 84 | 110 |
| Col5a1 (collagen, type V, alpha 1) | 2 | 75.2 | 79.6 |
| Fam110b (family with sequence similarity 110, member B) | 1 | 82.8 | 89.7 |
| Fam110b (family with sequence similarity 110, member B) | 2 | 66.3 | 56.2 |
| Fam110b (family with sequence similarity 110, member B) | 3 | 58 | 50.3 |

An excerpt of the results above, for reference:
| Gene | reagent | GFP, % of control | viability (ATP), % of control |
| --- | --- | --- | --- |
| Atp6v1c1 (ATPase, H+ transporting, lysosomal V1 subunit C1) | 3 | 37.7 | 43.6 |
| Slamf7 (SLAM family member 7) | 1 | 120 (active) | 87.6 |
| Slamf7 (SLAM family member 7) | 2 | 104 | 98.8 |
| Slamf7 (SLAM family member 7) | 3 | 89.2 | 87.9 |
| Or13c7c (olfactory receptor family 13 subfamily C member 7C) | 1 | 44.5 | 44 |
| Or13c7c (olfactory receptor family 13 subfamily C member 7C) | 2 | 77.3 | 98.6 |
| Or13c7c (olfactory receptor family 13 subfamily C member 7C) | 3 | 60.3 | 64.4 |
